Laboratory results reported in PubChem BioAssay AID540276 (National Center for Advancing Translational Sciences (NCATS), 2011).
Hit rate of the full screen: of about 300,000 compounds, about 5,400 (1.8%) were called active. Inconclusive results, whose numbers are uncertain, are shown with a selection of clear calls. Calls follow the shape of the full dose curve; tested in HEK293 cells. A potency beside an inconclusive call is a rough fit, not a confirmed value.

Experiment: qHTS for inhibitors of binding or entry into cells for Marburg Virus
Details: Marburg virus pseudotyped entry inhibition, cell reporter; activity change, negative = inhibition: at 37.8 µM (top of the series) unless noted
% is scaled to controls: 0 for no effect and ±100 for the full control effect; potency is read from the fitted curve at half-maximal effect.

SMILES | activity change, negative = inhibition | Potency
Cc1ccc(NC(=O)COc2ccc3c(c2)OCO3)c(C)c1 | inactive: 12.7% | –
NS(=O)(=O)c1ccc(CCNC(=O)c2ccc(S(=O)(=O)N3CCCCC3)cc2)cc1 | – | inconclusive: 0.259 µM [inhibitor, single point]
Cc1ccc(C(=O)n2c(N)nc3ccccc32)cc1 | – | active: 7.94 µM
C/C(=N\NC(=O)c1cccc([N+](=O)[O-])c1)c1cccs1 | inactive: 6.85% [at 46.1 µM] | –
CC(=O)Nc1sc(/C(C#N)=C\c2cccc(Cl)c2)nc1-c1ccc(C)cc1 | – | inconclusive: 20 µM [inhibitor, single point]
Cc1ccc(Nc2nc(N)nc(CN3CCN(c4ccccc4F)CC3)n2)cc1 | – | inconclusive: 5.17 µM [inhibitor, partial curve]
O=S1(=O)CCN2C(c3ccc4c(c3)CCCC4)=CSC2=N1 | – | inconclusive: 1.26 µM [inhibitor, partial curve, poor fit]
CC(C)NC(=O)c1ccc(CN2CCC(Cc3ccccc3)CC2)cc1 | – | inconclusive: 35.5 µM [inhibitor, partial curve, poor fit]
COc1ccc(N2C(=O)CN(Cc3cc(OC)c(OC)c(OC)c3)C2=S)cc1 | – | inconclusive: 11.2 µM [inhibitor, partial curve, poor fit]
CSc1ccc(S(=O)(=O)N2CCC(C(=O)NCCN3CCOCC3)CC2)cc1 | – | inconclusive: 35.5 µM [inhibitor, single point]
COc1ccc(C(=O)n2ccc(C)n2)cc1Br | inactive: 1.01% | –
CCc1nc(CN(C)C(=O)C2CCC(=O)N(CCc3cccc(F)c3)C2)no1 (stereo unspecified) | – | inconclusive: 35.5 µM [activator, single point]
CCN(Cc1ccccc1)S(=O)(=O)c1ccc(C(=O)N(CCCN(C)C)c2nc3cc4c(cc3s2)OCCO4)cc1 | – | inconclusive: 17.8 µM [inhibitor, single point]
CCOC(=O)CSC1=C(C#N)[C@H](c2ccc(C)cc2)[C@H](C(=O)OC)C(=O)N1 | inactive: -15.2% [at 46.1 µM] | –
Cc1nc(SCC(=O)NC(C)(C#N)C2CC2)c2c(-c3cccs3)csc2n1 (stereo unspecified) | – | inconclusive: 12.6 µM [inhibitor, partial curve, poor fit]
N#CCc1ccc(NC(=O)/C=C/c2ccc([N+](=O)[O-])o2)cc1 | – | inconclusive: 2.51 µM [inhibitor, full curve, poor fit]
O=C(Nc1cc2c(cc1Br)OCCCO2)c1cccnc1 | inconclusive: 9.34% [activator] | –
CC1CN(CN2C(=O)c3ccccc3C2=O)CC(C)O1 (stereo unspecified) | – | inconclusive: 0.259 µM [inhibitor, single point]
O=c1[nH]c2ccc(NC(=S)Nc3ccc(Cl)cc3)cc2[nH]1 | inactive: -8.13% | –
CN(C)/C=C/C(=O)c1ccc([N+](=O)[O-])c(CS(=O)(=O)c2ccccc2)c1 | inactive: -2.4% [at 46.1 µM] | –
CCn1c(CNC(=O)C2CCCCC2)cc2cc(C)ccc21 | – | inconclusive: 3.16 µM [inhibitor, single point]
O=C1c2cc(Br)ccc2O[C@@H](c2ccc3c(c2)OCO3)[C@@H]1O | – | inconclusive: 0.0266 µM [activator, partial curve, poor fit]

SMILES | activity change, negative = inhibition | Potency
COc1ccc(OC)c(/C=C2\SC(=S)N(Cc3cccnc3)C2=O)c1 | – | inconclusive: 1.26 µM [inhibitor, single point]
COc1ccc(Nc2nc(N(C)c3ccccc3)nc(N)c2[N+](=O)[O-])cc1 | inactive: 2.57% [at 46.1 µM] | –
O=C(CNC(=O)c1cccs1)OCC(=O)c1ccc(Br)cc1 | inactive: 7.52% [at 46.1 µM] | –
CCCC(=O)Nc1ccc(C)c(O)c1 | – | inconclusive: 35.5 µM [activator, single point]
CCc1ccc(N=C2NC(=O)CC(C(=O)Nc3ccc(OC)cc3)S2)cc1 (stereo unspecified) | inactive: 10.1% [at 46.1 µM] | –
S=C(N/N=C/c1cccc2ccccc12)Nc1cccc(Cl)c1 | – | inconclusive: 3.98 µM [inhibitor, full curve, poor fit]
Cc1cccc(NC(=O)CSc2nc(N)cc(N)n2)c1 | inactive: -14.2% | –
CC(C)Cn1c(N)c(C(=O)COC(=O)C2CC(=O)N(Cc3ccccc3Cl)C2)c(=O)n(C)c1=O (stereo unspecified) | – | inconclusive: 25.1 µM [inhibitor, single point]
Cc1ccccc1NC(=O)c1ccc(CN2CCC(Cc3ccccc3)CC2)cc1 | – | inconclusive: 12.6 µM [inhibitor, partial curve]
O=C(NCCCN1CCN(c2ccccc2F)CC1)Nc1ccc(F)cc1 | – | inconclusive: 1.26 µM [inhibitor, partial curve, poor fit]
Cn1c(Cc2csc(N)n2)nnc1SCC(=O)NC1CCCCC1 | inactive: 8.27% [at 46.1 µM] | –
O=C1CCCN1CCC1CCN(C(=S)Nc2ccc(F)cc2)CC1 | – | inconclusive: 23.1 µM [activator, partial curve, poor fit]
COCOc1ccc(Br)cc1C(=O)/C=C\c1ccc2c(c1)OCO2 | inactive: 5.59% [at 14.2 µM] | –
Cc1cc(C)nc(Nc2n[nH]c(-c3ccccc3N)n2)n1 | – | inconclusive: 11.2 µM [inhibitor, partial curve, poor fit]
CC(C)(C)c1nc(N2CCN(C(=O)c3ccco3)CC2)c2nnn(Cc3ccccc3)c2n1 | – | inconclusive: 14.6 µM [inhibitor, partial curve, poor fit]
CSc1ccccc1OCc1cc(C(=O)N2CCc3c(Cl)cccc3C2)no1 | – | inconclusive: 28.2 µM [inhibitor, partial curve, poor fit]
COc1ccc2nc(SCC(=O)NN)cc(C)c2c1 | inactive: -32.8% | –
Cn1cnnc1SCc1ccc(C(=O)N=Nc2c(O)n(Cc3ccc(Cl)cc3)c3ccccc23)cc1 | – | inconclusive: 18.4 µM [inhibitor, partial curve, poor fit]
O=C(CN1C(=O)NC2(CCCCCC2)C1=O)c1ccc(F)cc1 | inactive: 6.05% | –
CC(C)c1ccc(NC(=O)c2cc3c(s2)-c2ccccc2SC3)cc1 | inactive: -10.4% [at 46.1 µM] | –
Cc1ccc(CCNC(=O)c2ccc3c(c2)N(Cc2cccc(C)c2)C(=O)c2ccccc2S3(=O)=O)cc1 | – | inconclusive: 20 µM [inhibitor, partial curve, poor fit]
N#Cc1c(NC(=O)CSc2n[nH]c(N)n2)oc(-c2ccccc2)c1-c1ccccc1 | – | inconclusive: 20 µM [activator, single point]

Molecules shown so far that contain an aryl methoxy group, in the order listed:
SMILES | activity change, negative = inhibition | Potency
COc1ccc(N2C(=O)CN(Cc3cc(OC)c(OC)c(OC)c3)C2=S)cc1 | – | inconclusive: 11.2 µM [inhibitor, partial curve, poor fit]
COc1ccc(C(=O)n2ccc(C)n2)cc1Br | inactive: 1.01% | –
COc1ccc(OC)c(/C=C2\SC(=S)N(Cc3cccnc3)C2=O)c1 | – | inconclusive: 1.26 µM [inhibitor, single point]
COc1ccc(Nc2nc(N(C)c3ccccc3)nc(N)c2[N+](=O)[O-])cc1 | inactive: 2.57% [at 46.1 µM] | –
CCc1ccc(N=C2NC(=O)CC(C(=O)Nc3ccc(OC)cc3)S2)cc1 (stereo unspecified) | inactive: 10.1% [at 46.1 µM] | –
COc1ccc2nc(SCC(=O)NN)cc(C)c2c1 | inactive: -32.8% | –

Carrying on:

SMILES | activity change, negative = inhibition | Potency
Cc1cccc(-c2nc(S(=O)(=O)c3ccc(F)cc3)c(N3CCN(c4ccccc4)CC3)o2)c1 | inactive: -0.404% [at 46.1 µM] | –
O=C(CSc1nc2[nH]ncc2c(=O)n1-c1ccccc1Br)NCc1ccco1 | inactive: 1.09% | –
CC(C)(C)n1nnnc1C(c1cccs1)N(Cc1cccnc1)Cc1ccccc1Cl (stereo unspecified) | – | inconclusive: 13 µM [inhibitor, partial curve, poor fit]
NC(=S)N/N=C/c1ccc(C23CC4CC(CC(C4)C2)C3)cc1 | – | inconclusive: 3.16 µM [activator, single point]
COc1cccc(NC(=O)CN(C)C(=O)c2ccccc2-c2nc3ccccc3s2)c1 | – | active: 7.08 µM
CCCn1c2ccccc2c2nnc(SCC(=O)Nc3nnc(CC(=O)OCC)s3)nc21 | – | inconclusive: 3.55 µM [activator, partial curve, poor fit]
NC(=O)CSc1nnc(COc2ccc3ccccc3c2)o1 | – | inconclusive: 2 µM [activator, partial curve, poor fit]
CC(=O)c1ccc(-c2ccc(C(=O)NC3CCCCCC3)o2)cc1 | inactive: 9.71% [at 46.1 µM] | –
O=C(CSc1ccccn1)Nc1nc2c(ccc3ccccc32)s1 | – | inconclusive: 2.82 µM [activator, partial curve, poor fit]
COc1ccc(C2CC(c3cccs3)=NN2C(=O)c2ccc(Br)o2)cc1 (stereo unspecified) | – | inconclusive: 10 µM [inhibitor, single point]
COc1ccc(S(=O)(=O)n2cnc3cc(C)c(C)cc32)cc1 | inactive: -10.5% | –
CCOC(=O)C(C(=O)Nc1nccs1)C1CCCCC1 (stereo unspecified) | – | inconclusive: 35.5 µM [inhibitor, single point]
CCOc1ccc(N(C(=O)c2snc(C(N)=O)c2N)C(CC)C(=O)NC2CCCC2)cc1 (stereo unspecified) | – | inconclusive: 5.62 µM [inhibitor, single point]
Cc1ccc(OCC(=O)N(C)Cc2ccccc2)c([N+](=O)[O-])n1 | – | inconclusive: 0.1 µM [activator, full curve, poor fit]
CSc1nc2sc3c(c2c(=O)n1CC(C)C)CC(C)(C)OC3 | – | inconclusive: 0.126 µM [inhibitor, full curve, poor fit]
O=C(CSc1nc2ccccc2c(=O)n1NC(=O)c1ccccc1)c1ccc(Cl)cc1 | – | inconclusive: 32.6 µM [inhibitor, single point]
Fc1ccc(-c2nc(Nc3ccc(F)c(Cl)c3)nc3c2COc2ccccc2-3)cc1 | – | inconclusive: 3.98 µM [inhibitor, single point]
COc1ccccc1NS(=O)(=O)c1cc(NC(=O)c2cc(F)c(F)c(F)c2F)ccc1N1CCOCC1 | – | inconclusive: 17.8 µM [inhibitor, partial curve, poor fit]
COc1ccc(OC)c(N2C(N)=NC(N)=NC23CCCC3)c1 | – | inconclusive: 3.98 µM [activator, partial curve, poor fit]
COC(=O)c1ccccc1S(=O)(=O)N1CCC(C(=O)OC(C)C(=O)N(C)Cc2ccccc2)CC1 (stereo unspecified) | – | inconclusive: 1.26 µM [inhibitor, single point]
Cn1c(SCC(=O)N2c3ccccc3CCc3ccccc32)nnc1-c1cc2ccccc2cc1O | – | inconclusive: 20 µM [inhibitor, partial curve, poor fit]
O=C(O)c1ccc(CN2C(=O)CSC2=S)cc1 | – | inconclusive: 1.16 µM [inhibitor, partial curve]
